Test results as given in PMC4600896.
No constants are given. Whether binding was seen depends on the method and setting. Binding seen in cells or lysates may run through a third protein. Some binding calls cover weakened binding; strength is not graded here.

Sequences of proteins named here, by UniProt entry; tags and fusion partners are left off. A change or cut given only in a name is not applied to a line headed by its entry. A line that says so, or that is headed by a name, gives the form on record, which may keep a tag or linker.
GFP-xDnmt1 (Q6GQH0, form named): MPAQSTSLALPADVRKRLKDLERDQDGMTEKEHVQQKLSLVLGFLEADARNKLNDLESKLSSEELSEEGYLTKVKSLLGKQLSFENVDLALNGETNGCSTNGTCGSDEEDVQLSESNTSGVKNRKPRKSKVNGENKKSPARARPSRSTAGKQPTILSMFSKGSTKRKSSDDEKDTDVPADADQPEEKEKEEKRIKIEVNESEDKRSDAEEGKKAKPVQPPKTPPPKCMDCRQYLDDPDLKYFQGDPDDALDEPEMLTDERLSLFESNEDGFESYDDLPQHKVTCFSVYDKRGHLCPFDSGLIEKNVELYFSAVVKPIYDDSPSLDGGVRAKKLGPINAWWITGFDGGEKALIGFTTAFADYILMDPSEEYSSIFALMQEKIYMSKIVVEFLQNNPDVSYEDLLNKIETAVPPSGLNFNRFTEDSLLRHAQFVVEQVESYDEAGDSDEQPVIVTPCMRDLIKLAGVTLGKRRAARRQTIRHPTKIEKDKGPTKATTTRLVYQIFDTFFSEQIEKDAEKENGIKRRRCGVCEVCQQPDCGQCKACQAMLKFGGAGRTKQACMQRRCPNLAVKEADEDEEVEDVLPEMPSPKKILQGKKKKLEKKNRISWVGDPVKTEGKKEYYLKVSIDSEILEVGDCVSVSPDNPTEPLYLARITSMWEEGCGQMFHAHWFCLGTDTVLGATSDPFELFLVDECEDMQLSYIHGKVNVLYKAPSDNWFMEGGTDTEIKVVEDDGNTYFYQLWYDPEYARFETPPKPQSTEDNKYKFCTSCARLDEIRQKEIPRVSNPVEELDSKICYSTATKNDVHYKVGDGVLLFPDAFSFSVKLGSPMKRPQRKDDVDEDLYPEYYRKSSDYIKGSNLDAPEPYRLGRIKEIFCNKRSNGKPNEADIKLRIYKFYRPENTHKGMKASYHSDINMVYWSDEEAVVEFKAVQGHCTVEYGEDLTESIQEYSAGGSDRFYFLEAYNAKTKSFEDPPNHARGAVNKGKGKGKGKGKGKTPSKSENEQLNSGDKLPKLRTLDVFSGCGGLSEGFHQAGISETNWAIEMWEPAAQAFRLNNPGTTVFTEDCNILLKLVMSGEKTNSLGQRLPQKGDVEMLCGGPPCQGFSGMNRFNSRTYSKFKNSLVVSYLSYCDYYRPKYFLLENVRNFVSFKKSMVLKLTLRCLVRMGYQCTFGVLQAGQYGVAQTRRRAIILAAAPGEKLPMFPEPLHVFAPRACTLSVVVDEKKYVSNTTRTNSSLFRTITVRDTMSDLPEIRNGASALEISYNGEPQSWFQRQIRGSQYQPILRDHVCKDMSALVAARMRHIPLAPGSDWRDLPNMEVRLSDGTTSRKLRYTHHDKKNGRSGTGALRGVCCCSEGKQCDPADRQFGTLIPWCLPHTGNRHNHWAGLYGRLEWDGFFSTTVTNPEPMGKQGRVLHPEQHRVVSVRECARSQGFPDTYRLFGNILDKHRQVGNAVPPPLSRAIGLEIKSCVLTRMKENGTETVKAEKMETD

Target: T1, T7-xLsh (Xenopus laevis) (UniProt Q4V835)
T1 sequence: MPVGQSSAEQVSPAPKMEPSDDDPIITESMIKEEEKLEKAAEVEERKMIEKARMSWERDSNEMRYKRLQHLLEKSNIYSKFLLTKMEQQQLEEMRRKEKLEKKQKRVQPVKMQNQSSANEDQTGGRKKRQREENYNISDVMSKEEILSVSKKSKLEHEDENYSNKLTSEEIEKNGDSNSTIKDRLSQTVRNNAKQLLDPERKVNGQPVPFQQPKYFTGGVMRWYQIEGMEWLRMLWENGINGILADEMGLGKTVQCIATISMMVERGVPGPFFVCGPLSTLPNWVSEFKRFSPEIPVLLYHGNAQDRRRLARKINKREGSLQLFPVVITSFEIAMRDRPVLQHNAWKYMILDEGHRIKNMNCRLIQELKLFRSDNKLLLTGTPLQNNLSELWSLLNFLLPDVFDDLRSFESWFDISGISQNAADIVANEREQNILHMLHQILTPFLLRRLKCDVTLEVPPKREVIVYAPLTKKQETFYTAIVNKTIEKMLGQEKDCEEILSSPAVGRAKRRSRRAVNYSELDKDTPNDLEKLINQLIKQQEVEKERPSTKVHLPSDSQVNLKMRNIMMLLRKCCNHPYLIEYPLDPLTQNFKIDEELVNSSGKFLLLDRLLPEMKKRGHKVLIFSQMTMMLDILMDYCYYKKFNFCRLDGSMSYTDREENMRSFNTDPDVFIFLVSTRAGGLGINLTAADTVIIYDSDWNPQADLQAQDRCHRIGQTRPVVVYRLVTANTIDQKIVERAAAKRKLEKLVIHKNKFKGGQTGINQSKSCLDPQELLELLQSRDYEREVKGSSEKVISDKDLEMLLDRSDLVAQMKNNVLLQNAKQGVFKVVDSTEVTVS
Test: co-IP; GFP-xDnmt1 and T7-xLsh coexpressed in 293T cells, nuclear extracts, immunoprecipitated under high salt conditions (250 mM NaCl), reciprocal

For GFP-xDnmt1 (from UniProt Q6GQH0 1-1490), the binding was “binds”.
